Data on one sequence can be found in article PMC6523889.

The chains behind the UniProt entries cited, without tags or fusion partners. Where a name states a change or a piece, a line headed by the entry shows the natural chain unless it says otherwise.
UniProt P22629: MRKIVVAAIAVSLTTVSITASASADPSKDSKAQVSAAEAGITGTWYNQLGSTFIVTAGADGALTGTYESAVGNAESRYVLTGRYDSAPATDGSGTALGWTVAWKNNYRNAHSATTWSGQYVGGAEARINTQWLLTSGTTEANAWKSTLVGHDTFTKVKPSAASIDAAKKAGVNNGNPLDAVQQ

In one series the target is streptavidin (UniProt P22629). As to the kind of experiment: EMSA (native 2% agarose). Conditions: 100 and 200 nM streptavidin, 1x TBE + 2 mM MgCl2; Streptavidin EMSA: native 2% agarose gel in 1x TBE + 2 mM MgCl2; other binding conditions; commercial protein. (In general: A gel shift assay detects complexes by their altered migration in electrophoresis.)
In series [1] the target is streptavidin coated on 20 µm polystyrene microbeads (UniProt P22629). As to the kind of experiment: bead binding (fluorescence imaging after washing). Particulars: Spinach fluorescence read-out; commercial protein; protein details: immobilised on beads.

As for “GGGAGAUACCUGGGAAUGUGCUCUUCGGAGCAUAUUCGGCCUGCUUCGGCAGGCGCUCGCUUCGGCGAGCGCAGGGUGAAGCCUCCACGCCCUGCCCGGCAGCCUCGACGCGACCGAAAUGGUGAAGGACGGGUCCAGUGCUUCGGCACUGUUGAGUAGAGUGUGAGCUCCGUAACUGGUCGCGUCGAGGAACUACUGUCGCCAGGUGUCUCCCGCAGGGUGCGCCGGCAGAUGCGGCCGCCGACCAGAAUCAUGCAAGUGCGUAAGAUAGUCGCGGGUCGGCGGCCGCAUAACUACUGUCGGACCUGAAGGAGGCACGGGUCGACGGUACCCUUCGGGGUAUCGUCGCGGAGCUUCGGCUCCGGACCGCUUCGGCGGUCCGCACUCUGC”, the binding result (in the series with streptavidin; in series [1]) was “binds” in each case.
